# Measurements from patent publication EP0762893B1, “TREATMENT OF PLASMA” (SUOMEN PUNAINEN RISTI VERIPALVELU, priority 1994, dated 1995).
# “Also recorded” adds a separate entry of the source. At least one structure is not confirmed: it was looked up by name or label, or the drawing left a doubt.
# Test system: vesicular stomatitis virus (VSV)
# Format: cell-based
# Conditions: increasing ascorbate concentrations; 1 µmol/l MB; determined after 5 min treatment
smiles,measurement,value
O=C1O[C@H]([C@@H](O)CO)C(O)=C1O [ascorbate],effect of ascorbate on inactivation of VSV during the photochemical treatment,only a slight retarding effect; also recorded: only slightly retarded
